We go through 30 sequences from PubChem BioAssay AID1508600 (Functional Genomics Laboratory (NCATS/FGL), 2020).

In all, about 53,000 sequences went through this assay and about 3,700 (7%) were called active.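 How the source made its calls: active means gene knockdowns whose robust z-score for IL-1 alpha signal is at least 2 or at most -2, so actives lie on both sides; inactive means the rest.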 Some of the results follow.

A short description of this assay: Components of the Cytosolic LPS Sensing Pathway: Gene Identification via Genome-wide siRNA Screen.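 Further: robust z of the log signal after scaling to non-targeting control siRNA wells of the plate.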 The settings on record: RAW264.7 macrophages, IL-1a HTRF, actives lie on both sides, screened at 100 nM (by protocol), cells primed 5 h with Pam3CSK4 first. The method in brief:
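RAW264.7 mouse macrophages reverse-transfected with single siRNAs (100 nM final) for 48h, primed with Pam3CSK4 for 5 hours, then transfected with LipidA for 24 hour. Supernatant IL-1a read by HTRF; values normalized to negative-control median, log-transformed robust z-scores.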
Consider GGUCACCGUCAAGUACGACTT against Ppp1r14b, for which the z-score is inactive: -0.39.

On to CCCAGGCUAUUUCAACAAUTT against Arhgef11, for which the z-score is inactive: -1.24.

Take GCUCAACCUAACUUUGUGGTT against Ccdc3: the z-score is inactive: 0.421.

For the sequence GGUACCAAUUGAAGAUAUATT against Ncoa7, the z-score was active: 2.2.

For the sequence GCAAGAAGGUGAAGUGCAGTT against Fxyd7, the z-score is inactive: 0.322.

CCAGCAUAUUGGAACUACUTT against Olfr986: the z-score was inactive: -1.15.

Consider CCUCUACCCAGAUUAUGCATT against Grik1, for which the z-score is inactive: 0.559.

On to CCCAGUUGACAGGAGACCATT against Hps6, for which the z-score is inactive: 1.13.

Regarding GCAUAUCACAUCCGAAUACTT against Per1, the z-score is inactive: -0.223.

For “GCAGUGUCAAAAAGAGCCATT against G930045G22Rik”, the z-score is inactive: -1.69.

Consider GCAAACCUUCGGUCUUGCCTT against Cd5l, for which the z-score was inactive: -0.364.

As for GGUCCUGAUGAAGUUGUAGTT against Dcun1d5, the z-score was inactive: 0.365.

For GGGUAUGAGUGCAGACUAUTT against Zcchc9, the z-score was inactive: 0.803.

On to GCCUCGUGAAUAAUUGAAATT against Ddt, for which the z-score is inactive: 0.967.

CGUGGAAUGAAGAUUGUCCTT against Hsd17b12: the z-score was inactive: 0.284.

With GGCUCAUGUAAGAUAAUUATT against Kcns3, the z-score was inactive: -1.03.

Consider GGUUCACCACCUGCUACAATT against Pmf1, for which the z-score is inactive: -0.547.

CGUAGAUGCUUCCAAGAUGTT against Ube2g2: the z-score is inactive: -1.

GGCAAACAAUAAAGUGUGGTT against Bpgm: the z-score is inactive: 0.897.

On to GGAUUUGAGUUACACUCAGTT against Mapk10, for which the z-score is inactive: -1.27.

In the case of CCAGAGAUGACCGUCUUAATT against Hddc2, the z-score is inactive: 0.204.

Consider GGAGGCAGCUCCUAUGAUGTT against Rbm28, for which the z-score is inactive: 0.378.

Take GGAAAUCGAGCAAAAGACATT against Cep104: the z-score was inactive: 1.5.

As for GGGAUCAUGGAUUUCUUCCTT against Tmem119, the z-score is inactive: 0.393.

Consider GGUUCGACUGAAAACUUUCTT against Vamp2, for which the z-score was inactive: 0.595.

As for CCUGCAUUUGCCGAACUUATT against Stk26, the z-score was inactive: 0.428.

As for GGGAACCAGUACAAUUACATT against Glt8d1, the z-score was inactive: -0.755.

Consider GCUCUUACCACUGAUAGGATT against Ppcs, for which the z-score is inactive: 0.049.

For the sequence GCACUGUUCGUUUUUGUUUTT against Astn1, the z-score is inactive: 0.275.

For GAGAUCAACUUGGUGACGGTT against Cacng7, the z-score is inactive: -0.446.
